Results on one compound are retold here after paper PMC6216108 (International Journal for Parasitology: Drugs and Drug …, 2018).

Sequences of proteins named here, by UniProt entry; tags and fusion partners are left off. A change or cut given only in a name is not applied to a line headed by its entry.
UniProt E9AFX2: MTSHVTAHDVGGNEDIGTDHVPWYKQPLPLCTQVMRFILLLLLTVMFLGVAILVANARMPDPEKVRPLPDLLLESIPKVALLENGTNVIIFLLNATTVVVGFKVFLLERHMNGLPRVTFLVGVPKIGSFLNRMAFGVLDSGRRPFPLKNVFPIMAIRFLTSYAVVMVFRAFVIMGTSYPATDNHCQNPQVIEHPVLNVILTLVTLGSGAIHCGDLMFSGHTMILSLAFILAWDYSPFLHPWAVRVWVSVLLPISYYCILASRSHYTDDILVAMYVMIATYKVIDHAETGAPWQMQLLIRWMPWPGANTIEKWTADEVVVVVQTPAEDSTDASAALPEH

For this assay, the target named is L. major IPC synthase (inositolphosphorylceramide synthase, LmjFIPCS) (Leishmania major, UniProt E9AFX2). The assay can be described thus: biochemical.

Broadly, the IC50 is the concentration that gives 50% inhibition. Compound `CC/C(=C(\c1ccccc1)c1ccc(OCCN(C)C)cc1)c1ccccc1` [Tamoxifen] registered an IC50 of 8.48 µM.
